PubChem BioAssay AID652272, Drosophila RNAi Screening Center, 2013

Purpose: 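Finding fly genes that regulate Hedgehog signal transduction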 (primary screen)
System: Drosophila clone 8 (Cl8) cells
Reagent: long dsRNA against Drosophila genes
Measurement: 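Plate reader light from a firefly reporter under a ptc promoter fragment that responds to Hedgehog, with Renilla light as transfection reference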
Direction: firefly Hh reporter signal: higher = more ptc reporter light; Renilla reference signal: higher = more Renilla control light
Active means: 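Called a hit if the two-replicate mean z-score lies below -2 or above +3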
Meaning of the calls: active = hit: reporter lowered or raised; inactive = not a hit
The screen tested about 21,000 reagents; below is an unselected part of those with a known target gene and a result. In the full data, 503 (2.4%) are marked active. 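Raw plate light values, not normalised; calls rest on replicate z-scores that were not deposited; hits include reporter decreases as well as increases.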 A number with no mark means an inactive call. Names joined by + are all predicted targets of the reagent. Not stated in the record: the amount of reagent, the time to read-out.

gene	DRSC id	firefly Hh reporter signal, replicate 1	firefly Hh reporter signal, replicate 2	firefly Hh reporter signal, replicate 3	Renilla reference signal, replicate 1	Renilla reference signal, replicate 2
Hira (GeneID 31680)	DRSC18672	86999	3.14e5		2249	12697
CG13036 (retired record) (GeneID 39823)	DRSC09916	93008			5972	3152
Rdl (GeneID 39054)	DRSC08967	1.58e5	2.65e5		4587	10291
Rdl (GeneID 39054)	DRSC11264	1.46e5	65764		5693	2688
ninaE (GeneID 42367)	DRSC17014	5.60e5	1.12e5		28400	2980
mfr (GeneID 39016)	DRSC10543	30631	56723		3634	3944
CG6415 (GeneID 34474)	DRSC02954	60920	55159		3196	2058
pdm3 (GeneID 35813)	DRSC06076	1.19e5	81757		2893	7445
pdm3 (GeneID 35813)	DRSC06490	1.26e5	61744		3211	5643
pbl (GeneID 38879)	DRSC11381	76822	37595		3136	1977
EMC2B (GeneID 42045)	DRSC15506	35526	68563		840	1968
Sfp26Ad (GeneID 8673981)	DRSC00904	3.83e5	2.34e5		18903	9864
CG13251 (GeneID 40286)	DRSC11699	99456	1.12e5		3216	3234
CG14650 (GeneID 40566)	DRSC12236	1.87e5	1.25e5		8032	4513
CG18128 (GeneID 37756)	DRSC04304	60311	41190		1620	4210
CG8509 (GeneID 32535)	DRSC20109	97105	72962		2701	1936
CG2931 (GeneID 40673)	DRSC12324	90244	1.45e5		3421	4300
CG6294 + CG6299 + CG15642	DRSC19981	84648	2.34e5		2631	9766
Incenp (GeneID 35649)	DRSC06116	1.53e5	1.14e5		6124	4727
PK2-R2 (GeneID 41638)	DRSC16448	76944	95204		2514	2586
CG3184 (GeneID 31608)	DRSC18289	88192	56806		2386	1355
Obp83cd (GeneID 40746)	DRSC12267	86395	81408		3640	2944
Nnp-1 (GeneID 44391)	DRSC02165	1.01e5	52805		2450	5059
CG8664 (GeneID 32719)	DRSC20116	88461	2.10e5		3035	8576
CG3124 (GeneID 37688)	DRSC04339	48128	14756		672	1704
CtsB (GeneID 32341)	DRSC19361	78765	96102		1910	2632
CG14609 (GeneID 40864)	DRSC12553	60373	79114		2597	2594
CG32109 (GeneID 39444)	DRSC09816	33461	60843	71444	6597	5610
Srrm1 (GeneID 39483)	DRSC09835	48587	45634	79029	4475	5587
CG12057 (GeneID 31854)	DRSC17797	1.16e5	2.22e5		3608	9104
CG31345 (GeneID 41576)	DRSC14193	82192	1.15e5		3457	2508
CG31345 (GeneID 41576)	DRSC14847	1.40e5	1.10e5		4944	2480
orion (GeneID 31712)	DRSC18213	65643	2.05e5		1456	7841
orion (GeneID 31712)	DRSC18214	77509	2.62e5		2184	10161
CG42663 (GeneID 36403)	DRSC06158	62901	52210		2024	3969
CG42663 (GeneID 36403)	DRSC06404	99635	6.76e5	87568	2560	38746
squ (GeneID 2768920)	DRSC01549	1.12e5	2.72e5		3094	11607
MnM (GeneID 38384)	DRSC08423	88525	34873		2051	1296
Ppcs (GeneID 42295)	DRSC14127	1.27e5	67738		4946	2704

Part of the list above, reformatted.
gene,DRSC id,"firefly Hh reporter signal, replicate 1","firefly Hh reporter signal, replicate 2","firefly Hh reporter signal, replicate 3","Renilla reference signal, replicate 1","Renilla reference signal, replicate 2"
CG42663 (GeneID 36403),DRSC06158,62901,52210,,2024,3969
CG42663 (GeneID 36403),DRSC06404,99635,6.76e5,87568,2560,38746
squ (GeneID 2768920),DRSC01549,1.12e5,2.72e5,,3094,11607
